2 sequences from PMC5636791, “Non-canonical reader modules of BAZ1A promote recovery from DNA damage” can be followed below.

Substitutions are numbered along the chain they refer to. Weaker means in comparison with the reference protein, sequence or condition of that experiment. Where a protein sequence is shown, tags need not be part of it. For some assays here: For at least one entry, the source does not settle the construct or the ends of the probe. For some assays here: At least one verdict was read from the data and is not stated in words by the source.

Data set [1] concerns the target T1, BAZ1A-PHD K1181A/K1183Y (KAKY) (human) (UniProt Q9NRL2).
T1 sequence (looked up): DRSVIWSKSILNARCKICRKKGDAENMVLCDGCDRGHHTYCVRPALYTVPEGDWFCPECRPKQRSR
Description: fluorescence polarization. As to conditions: binding stated to depend on K1181 and K1183; FP: 20 mM Tris pH 7.5, 150 mM NaCl, 1% glycerol, 0.5 mg/mL BSA, 0.05% Triton X-100, RT, 50 nM probe; recombinant protein; residues 1137-1202; protein details: His6-FLAG N-terminal, removed for BLI; label: 5' fluorescein. A general note: Polarisation of emitted light reports the rotation of a fluorescent probe.

Another data set has as its target T2, BAZ1A-PHD K1181A (human) (UniProt Q9NRL2).
T2 sequence (looked up): T1 sequence (looked up) with Y47K
Description: BLI. The note with it: BLI: 50 mM Tris pH 7.5, 150 mM NaCl, 1 mM TCEP, 0.5% BSA, 0.01% Tween-20, 23 C; recombinant protein; residues 1137-1202; protein details: His6-FLAG N-terminal, removed for BLI; label: 5' biotin.

For the sequence “ATCAGAATCCCGGTGCCGAGGCCGCTCAATTGGTCGTAGACAGCTCTAGCACCGCTTAAACGCACGTACGCGCTGTCCCCCGCGTTTTAACCGCCAAGGGGATTACTCCCTAGTCTCCAGGCACGTGTCAGATATATACATCGAT (double strand) [Widom-601 145 bp duplex, fluorescein]”, the binding result in data set [1] is recorded as “binds more weakly”.

Turning to “CTTGCATCGATCCGATTGAACCATCGCTCGGTGACAGCTACGTGACTTAGTGTGCCCCATCGATCCAGTTCGATCACAGGCCACCTGAGTCGAGAGTATCGACACCCAGTGAACGATCGATCCGACTCGATCGCCTCACTGCTAG (double strand) [scrambled Widom-601 145 bp duplex]”, the binding result in the data set with BAZ1A-PHD K1181A (human) is “binds more weakly”.
